Results on two sequences are retold here after PMC8891019.

Sequences of proteins named here, by UniProt entry; tags and fusion partners are left off.
UniProt Q13148, whole entry: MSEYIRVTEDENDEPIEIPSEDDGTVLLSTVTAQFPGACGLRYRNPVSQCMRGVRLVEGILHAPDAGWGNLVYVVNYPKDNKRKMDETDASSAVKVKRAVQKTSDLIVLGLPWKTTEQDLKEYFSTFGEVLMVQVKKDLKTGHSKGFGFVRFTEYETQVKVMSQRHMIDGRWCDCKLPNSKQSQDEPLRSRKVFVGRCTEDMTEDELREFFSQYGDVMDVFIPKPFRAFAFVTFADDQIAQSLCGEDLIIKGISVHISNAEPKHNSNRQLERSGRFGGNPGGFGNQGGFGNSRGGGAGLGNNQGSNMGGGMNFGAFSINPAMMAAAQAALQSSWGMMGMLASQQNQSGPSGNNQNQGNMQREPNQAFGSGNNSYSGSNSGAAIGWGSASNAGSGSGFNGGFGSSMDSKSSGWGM

The data set has as its target TDP-43-MBP (full-length wild-type TDP-43) (UniProt Q13148). Briefly: EMSA. To be noted: Kd,app only in figure, 5' biotin on 18-mer strand, EMSA: 1 nM RNA, 50 mM Tris-HCl pH 7.5, 100 mM KCl, 2 mM MgCl2, 100 mM beta-mercaptoethanol, 0.1 mg/ml BSA, 30 min, room temperature, TDP-43 0-4, recombinant protein, residues 1-414, protein details: MBP, Ni-NTA purified, label: 5' Cy3 on strand 1, 3' Cy5 on 18-mer.

The comparison behind a weaker result is the experiment's own reference, which may not be listed here.

“AAUGGAUGGGUGGAUAAAUUGAUGGGUGGAUGGAUGCCUCGCUGCCGUCGCCA / UGGCGACGGCAGCGAGGC [Intron Risk (G), rs12608932]”: the binding result (minor reduction vs Intron Ref) is “binds more weakly”.
“UGGAUGGAUGGAUGGAUGGAUGGAUGGAUGGAUGGAUGGCCUCGCUGCCGUCGCCA / UGGCGACGGCAGCGAGGC [Repeat Risk ((GATG)9), rs56041637]”: the binding result (lower affinity than Repeat Ref) is recorded as “binds more weakly”.
